The other results are listed elsewhere or left out.
Legend:
Assay in all cases: log2 fold change, soluble protein after heating vs DMSO (PISA); higher = thermal stabilisation; K562 lysate, 10 uM; active = over 0.2 and 3.5 SD of the protein, either way, in both replicates (recomputed)
[1] = compound: C1=CC2=NC=CN=C2C=C1/C=C/3\C(=O)NC(=O)S3
Method in brief: (§1)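 K562 pellets were dounce-homogenised in PBS pH 7.4 containing 1 mM MgCl2, and the crude extract, at 1 mg/mL protein, was exposed to 10 μM compound for 30 min. Aliquots were heated for 3 min across 48°C-58°C, pooled, brought to 0.5% NP-40 at 4°C and spun at 21,000xg for 90 min, with the supernatant taken as soluble protein. TMTpro 16plex LC-MS/MS with equalised channel sums quantified that protein. Values are log-two fold changes in thermal stability relative to solvent controls, taken from duplicates.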

Protein sequences, listed by entry. Tags and fused reporters are not part of them. Lines headed by an entry give the natural chain unless they say otherwise; changes in a name come on top.
UniProt Q9Y548: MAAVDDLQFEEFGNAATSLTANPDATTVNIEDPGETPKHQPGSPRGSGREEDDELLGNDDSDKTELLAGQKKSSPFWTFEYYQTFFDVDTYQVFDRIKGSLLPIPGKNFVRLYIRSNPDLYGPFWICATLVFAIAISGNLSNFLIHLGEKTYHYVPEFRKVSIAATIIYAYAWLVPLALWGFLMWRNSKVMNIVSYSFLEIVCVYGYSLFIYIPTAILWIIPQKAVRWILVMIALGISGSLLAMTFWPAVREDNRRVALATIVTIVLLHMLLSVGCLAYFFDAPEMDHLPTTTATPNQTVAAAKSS
UniProt Q8TBK6: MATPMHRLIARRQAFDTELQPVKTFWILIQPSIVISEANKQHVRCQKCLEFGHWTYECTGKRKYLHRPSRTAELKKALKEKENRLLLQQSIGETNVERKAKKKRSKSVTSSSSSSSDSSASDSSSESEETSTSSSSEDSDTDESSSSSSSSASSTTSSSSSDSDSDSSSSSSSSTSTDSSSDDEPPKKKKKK
UniProt Q8NCP5: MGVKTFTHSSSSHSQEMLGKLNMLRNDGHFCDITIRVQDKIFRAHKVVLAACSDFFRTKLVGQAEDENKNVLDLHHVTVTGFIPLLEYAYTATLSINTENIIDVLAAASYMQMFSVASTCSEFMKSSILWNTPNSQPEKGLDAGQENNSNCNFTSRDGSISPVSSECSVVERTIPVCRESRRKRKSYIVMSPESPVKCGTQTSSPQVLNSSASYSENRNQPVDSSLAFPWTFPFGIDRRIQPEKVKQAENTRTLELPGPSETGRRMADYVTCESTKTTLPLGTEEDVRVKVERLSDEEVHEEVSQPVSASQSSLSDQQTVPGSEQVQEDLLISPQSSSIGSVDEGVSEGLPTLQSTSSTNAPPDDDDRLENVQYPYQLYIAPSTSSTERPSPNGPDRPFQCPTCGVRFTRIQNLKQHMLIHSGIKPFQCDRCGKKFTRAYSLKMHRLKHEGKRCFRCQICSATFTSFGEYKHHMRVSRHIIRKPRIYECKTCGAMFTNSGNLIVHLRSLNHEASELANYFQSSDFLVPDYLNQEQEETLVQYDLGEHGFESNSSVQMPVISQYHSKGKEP
UniProt O15156: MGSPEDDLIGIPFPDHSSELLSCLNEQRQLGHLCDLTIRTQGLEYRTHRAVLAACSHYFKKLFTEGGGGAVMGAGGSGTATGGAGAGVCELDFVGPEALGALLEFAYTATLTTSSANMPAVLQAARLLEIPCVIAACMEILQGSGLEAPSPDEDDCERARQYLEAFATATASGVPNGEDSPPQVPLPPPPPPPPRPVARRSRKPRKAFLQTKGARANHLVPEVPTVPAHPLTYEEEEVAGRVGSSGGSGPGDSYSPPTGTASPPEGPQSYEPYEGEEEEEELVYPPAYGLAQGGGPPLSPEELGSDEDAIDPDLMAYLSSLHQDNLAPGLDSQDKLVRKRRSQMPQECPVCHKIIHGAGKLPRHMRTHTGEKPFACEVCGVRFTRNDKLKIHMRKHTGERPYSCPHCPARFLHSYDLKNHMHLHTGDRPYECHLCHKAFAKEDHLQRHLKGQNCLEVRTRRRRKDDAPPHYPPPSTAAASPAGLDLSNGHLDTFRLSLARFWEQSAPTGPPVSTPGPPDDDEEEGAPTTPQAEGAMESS

[2] = compound: C1CCN(C1)C(=O)NC2=CC=CC(=C2)NC3=NC=C(C(=N3)NCCC4=CN=CN4)Br
Method in brief: as §1

[3] = compound: C1CN(CCC1(CC2=CC=C(C=C2)Cl)N)C3=NC=NC4=C3C=CN4
Method in brief: as §1

ibrutinib = compound: C=CC(=O)N1CCC[C@@H](n2nc(-c3ccc(Oc4ccccc4)cc3)c3c(N)ncnc32)C1 [ibrutinib]
Method in brief: as §1

[4] = compound: CC(=O)c1cnc2ccc(-c3cc(Cl)c(O)c(Cl)c3)nc2c1N[C@H]1CC[C@H](CN(C)C)CC1
Method in brief: as §1

[5] = compound: CC1=CC=C(C=C1)SC2=C3C=C(SC3=CN=C2)C(=O)N
Method in brief: as §1

[6] = compound: CC1=C(C(CC(=O)N1)C2=CC=C(C=C2)C(F)(F)F)C(=O)NC3=C(C=C4C(=C3)C=NN4)F
Method in brief: as §1

[7] = compound: CC1=C(C2=C(C=C1)C(=O)C3=CC=CC=C3N2CCCN)C
Method in brief: as §1

[8] = compound: CC1=C(C=C(C=C1)NC(=O)C2=CC(=CC=C2)C(C)(C)C#N)NC3=CC4=C(C=C3)N=CN(C4=O)C
Method in brief: as §1

[9] = compound: C1=CC=C(C=C1)C2=NC(=C(N2)C3=CC=NC=C3)C4=CC(=C(C=C4)Cl)O
Method in brief: as §1

IRAK-1-4 Inhibitor I = compound: C1COCCN1CCN2C3=CC=CC=C3N=C2NC(=O)C4=CC(=CC=C4)[N+](=O)[O-] [IRAK-1-4 Inhibitor I]
Method in brief: as §1

ralimetinib = compound: CC(C)(C)Cn1c(N)nc2ccc(-c3[nH]c(C(C)(C)C)nc3-c3ccc(F)cc3)nc21 [ralimetinib]
Method in brief: as §1

[10] = compound: CC(C)(O)CC(=O)NCCn1ccc2ncnc(Nc3ccc(Oc4cccc(C(F)(F)F)c4)c(Cl)c3)c21
Method in brief: as §1

[11] = compound: CC1=C(C=C(C=C1)NC(=O)C2=CC(=CC=C2)N(C)C)NC(=O)C3=CC=C(C=C3)O
Method in brief: as §1

Measured: log2 fold change

YWHAZ (UniProt E7EX29)
inactive: [1] 0.135 | [2] -0.123 | [3] 0.053 | ibrutinib 0.028 | [4] -0.014 | [5] -0.109

YIPF1 (UniProt Q9Y548)
inactive: [1] -0.114 | ibrutinib 0.05 | [4] 0.011 | [6] -0.06 | [7] -0.064 | [8] 0.071 | [5] 0.006

ZCCHC10 (UniProt Q8TBK6)
inactive: [1] 0.134 | [9] -0.024 | [2] 0.206 | [3] 0.069 | IRAK-1-4 Inhibitor I 0.114 | ibrutinib 0.068 | ralimetinib -0.061 | [10] 0.202 | [7] 0.017 | [8] 0.052 | [11] -0.161

ZBTB44 (UniProt Q8NCP5)
inactive: [8] 0.023

ZBTB7B isoform 2 (UniProt O15156)
inactive: [1] 0.218 | ibrutinib 0.123 | [7] -0.368 | [8] 0.046
